Test results from patent publication US20260284208A1, “SYSTEM” (Oxford University Innovation Limited, priority 2023, published 2026).
The source gives many values for each of these; only a part stands here.

Test system: library of 8,380 IKZF3 degrons (ZF-eGFP/mCherry reporter) in Jurkat cells
Assay: Pooled library screen (FACS, NGS, limma voom LogFC of positive vs negative read counts)
Assay type: cell-based, human
Description: A library of 8,380 IKZF3 degrons was cloned into pLVX-Sprout to create the eGFP/mCherry protein degradation reporter plasmid pool. A lentivirus pool was then generated using the Lenti-X lentiviral vector production method.
Jurkat cells were transduced at a multiplicity of infection of <0.3 with the lentivirus vector library in order to maximise the number of cells with a single integration. Transductions were carried out in 6 well TC-treated cell culture dishes (Falcon) with 3×10^6 cells per well. Cells were incubated for 2 days at 37° C. and 5% CO2 before the supernatant was removed and replaced with fresh media. 6 days post-transduction, mCherry+ cells were isolated via FACS using the FACS Aria Fusion (BD) in a buffer containing PBS (Gibco), 2 mM EDTA (Gibco), 25 mM HEPES (Sigma) and 1% BSA (Sigma). 8 days later, cells were treated with DMSO or a thalidomide analog for 18 hours at 37° C. and 5% CO2. mCherry+GFPlow and NOT(mCherry+GFPlow) cells were sorted by FACS using the FACS Aria Fusion (BD). DMSO treated cells were used to set the mCherry+GFPlow gate and dead cells were excluded from sorting by staining cells with 1 μg/mL DAPI (ThermoFisher). gDNA was isolated using the Maxwell RSC 48 (Promega). gDNA from cells that were unsorted and untreated were also isolated to determine the library representation on the day of compound treatment. Throughout the screen >600× coverage of the library was maintained. 3 biological replicates were carried out with a new transduction taking place each time.
A two-step PCR was used where the first PCR (PCR1) amplified the integrated degron sequence from gDNA and the second PCR (PCR2) added Illumina adaptors and barcodes to permit multiplexing. See Supp F for PCR1 and PCR2 primers. Q5 Hot Start High-Fidelity 2× Master Mix (New England Biolabs) was used for both PCRs. Sufficient gDNA was amplified in PCR1 in order to maintain >600× coverage and amplicons were purified using solid phase reversible immobilization (SPRI) beads (Beckman Coulter). Purified PCR1 products were analysed on the Tapestation 4200 (Agilent) to confirm purity prior to proceeding to PCR2. Sufficient PCR1 product was amplified in PCR2 in order to maintain >600× coverage and amplicons were run on a 2% agarose TAE gel. Target bands were excised and purified using the NucleoSpin Gel and PCR Clean-up Kit (Machery Nagel). Amplicons were analysed on the Tapestation 4200 and quantified using Qubit dsDNA HS kit (ThermoFisher). PCR products were pooled and sequenced as paired-reads on the NovaSeq (Illumina) using a SP2 200 cycles kit (Illumina).
Count distributions, percentage of read mapping, library coverage and replicate correlation per sample were assessed for QC purposes.
To carry out the library screen, we used the same plasmid construct as in our earlier flow cytometry assays, but pooling all 8,380 mutants together into one Jurkat population, ensuring a copy number of one plasmid per cell (FIG. 4B). […] These GFP-negative cells were then separated from the remaining GFP-positive population using fluorescence activated cell sorting (FACS). These two populations were then sequenced and the relative abundance of every mutant in both populations compared to provide a log FC value for each mutant sequence. This value indicated how frequently a sequence is observed in the GFP-negative population relative to the GFP-positive population, and therefore how effective a degron it is for that particular IMID compound.

Work on `O=C1CCC(N2C(=O)c3ccc(N4CCOCC4)cc3C2=O)C(=O)N1` (stereo not shown) [B03] yielded a B03_logFC (degron 4300 (SEQ ID NO 3506) 46F_47W_49P_50V_52G_53A_54A_55F_67L) of 3.687, a B03_logFC (degron 4301 (SEQ ID NO 3614) 46F_47W_49P_50V_52G_53A_54C_55F_67L) of 3.444 and a B03_logFC (degron 4306 (SEQ ID NO 3480) 46F_47W_49P_50V_52G_53A_54H_55F_67L) of 3.788. It also gave a B03_logFC (degron 4311 (SEQ ID NO 3465) 46F_47W_49P_50V_52G_53A_54N_55F_67L) of 3.855, a B03_logFC (degron 4313 (SEQ ID NO 3456) 46F_47W_49P_50V_52G_53A_54Q_55F_67L) of 3.919 and a B03_logFC (degron 4314 (SEQ ID NO 3581) 46F_47W_49P_50V_52G_53A_54R_55F_67L) of 3.51. It also gave a B03_logFC (degron 4315 (SEQ ID NO 3601) 46F_47W_49P_50V_52G_53A_54S_55F_67L) of 3.475, a B03_logFC (degron 4316 (SEQ ID NO 3612) 46F_47W_49P_50V_52G_53A_54T_55F_67L) of 3.45 and a B03_logFC (degron 4321 (SEQ ID NO 3630) 46F_47Y_49D_50I_52G_53A_54C_55F_67L) of 3.415. It also gave a B03_logFC (degron 4326 (SEQ ID NO 3640) 46F_47Y_49D_50I_52G_53A_54H_55F_67L) of 3.376, a B03_logFC (degron 4331 (SEQ ID NO 3625) 46F_47Y_49D_50I_52G_53A_54N_55F_67L) of 3.424 and a B03_logFC (degron 4332 (SEQ ID NO 3553) 46F_47Y_49D_50I_52G_53A_54P_55F_67L) of 3.565. For the same compound, the B03_logFC (degron 4333 (SEQ ID NO 3559) 46F_47Y_49D_50I_52G_53A_54Q_55F_67L) was 3.554, the B03_logFC (degron 4380 (SEQ ID NO 3547) 46F_47Y_49E_50I_52G_53A_54A_55F_67L) was 3.592 and the B03_logFC (degron 4381 (SEQ ID NO 3540) 46F_47Y_49E_50I_52G_53A_54C_55F_67L) was 3.605. For the same compound, the B03_logFC (degron 4386 (SEQ ID NO 3592) 46F_47Y_49E_50I_52G_53A_54H_55F_67L) was 3.489, the B03_logFC (degron 4387 (SEQ ID NO 3573) 46F_47Y_49E_50I_52G_53A_54I_55F_67L) was 3.527 and the B03_logFC (degron 4388 (SEQ ID NO 3468) 46F_47Y_49E_50I_52G_53A_54K_55F_67L) was 3.839. For the same compound, the B03_logFC (degron 4389 (SEQ ID NO 3639) 46F_47Y_49E_50I_52G_53A_54L_55F_67L) was 3.379, the B03_logFC (degron 4390 (SEQ ID NO 3626) 46F_47Y_49E_50I_52G_53A_54M_55F_67L) was 3.419 and the B03_logFC (degron 4391 (SEQ ID NO 3508) 46F_47Y_49E_50I_52G_53A_54N_55F_67L) was 3.678. For the same compound, the B03_logFC (degron 4392 (SEQ ID NO 3489) 46F_47Y_49E_50I_52G_53A_54P_55F_67L) was 3.743, the B03_logFC (degron 4393 (SEQ ID NO 3562) 46F_47Y_49E_50I_52G_53A_54Q_55F_67L) was 3.548 and the B03_logFC (degron 4394 (SEQ ID NO 3644) 46F_47Y_49E_50I_52G_53A_54R_55F_67L) was 3.37. The B03_logFC (degron 4396 (SEQ ID NO 3452) 46F_47Y_49E_50I_52G_53A_54T_55F_67L) was 4.054, the B03_logFC (degron 4397 (SEQ ID NO 3543) 46F_47Y_49E_50I_52G_53A_54V_55F_67L) was 3.6 and the B03_logFC (degron 4421 (SEQ ID NO 3467) 46F_47Y_49E_50V_52G_53A_54C_55F_67L) was 3.846. It also gave a B03_logFC (degron 4426 (SEQ ID NO 3532) 46F_47Y_49E_50V_52G_53A_54H_55F_67L) of 3.622, a B03_logFC (degron 4427 (SEQ ID NO 3609) 46F_47Y_49E_50V_52G_53A_54I_55F_67L) of 3.453 and a B03_logFC (degron 4428 (SEQ ID NO 3518) 46F_47Y_49E_50V_52G_53A_54K_55F_67L) of 3.658. The B03_logFC (degron 4430 (SEQ ID NO 3623) 46F_47Y_49E_50V_52G_53A_54M_55F_67L) was 3.428, the B03_logFC (degron 4431 (SEQ ID NO 3461) 46F_47Y_49E_50V_52G_53A_54N_55F_67L) was 3.876 and the B03_logFC (degron 4432 (SEQ ID NO 3610) 46F_47Y_49E_50V_52G_53A_54P_55F_67L) was 3.453. It also gave a B03_logFC (degron 4433 (SEQ ID NO 3549) 46F_47Y_49E_50V_52G_53A_54Q_55F_67L) of 3.573, a B03_logFC (degron 4434 (SEQ ID NO 3475) 46F_47Y_49E_50V_52G_53A_54R_55F_67L) of 3.797 and a B03_logFC (degron 4435 (SEQ ID NO 3462) 46F_47Y_49E_50V_52G_53A_54S_55F_67L) of 3.865. It also gave a B03_logFC (degron 4436 (SEQ ID NO 3451) 46F_47Y_49E_50V_52G_53A_54T_55F_67L) of 4.14, a B03_logFC (degron 4437 (SEQ ID NO 3481) 46F_47Y_49E_50V_52G_53A_54V_55F_67L) of 3.786 and a B03_logFC (degron 4452 (SEQ ID NO 3566) 46F_47Y_49N_50I_52G_53A_54P_55F_67L) of 3.541. For the same compound, the B03_logFC (degron 4501 (SEQ ID NO 3527) 46F_47Y_49P_50I_52G_53A_54C_55F_67L) was 3.633, the B03_logFC (degron 4506 (SEQ ID NO 3556) 46F_47Y_49P_50I_52G_53A_54H_55F_67L) was 3.558 and the B03_logFC (degron 4511 (SEQ ID NO 3605) 46F_47Y_49P_50I_52G_53A_54N_55F_67L) was 3.463. For the same compound, the B03_logFC (degron 4513 (SEQ ID NO 3554) 46F_47Y_49P_50I_52G_53A_54Q_55F_67L) was 3.563.
